No constants are given. Whether binding was seen depends on the method and setting. Binding seen in cells or lysates may run through a third protein. Some binding calls cover weakened binding; strength is not graded here. For part of these data: Where a sequence is shown, tags or fusion partners need not be part of it.

What all share (conditions): remark: other sources report otherwise
Test [1] has as its target T1, FLAG-FOXA2, Q9Y261.
T1 chain: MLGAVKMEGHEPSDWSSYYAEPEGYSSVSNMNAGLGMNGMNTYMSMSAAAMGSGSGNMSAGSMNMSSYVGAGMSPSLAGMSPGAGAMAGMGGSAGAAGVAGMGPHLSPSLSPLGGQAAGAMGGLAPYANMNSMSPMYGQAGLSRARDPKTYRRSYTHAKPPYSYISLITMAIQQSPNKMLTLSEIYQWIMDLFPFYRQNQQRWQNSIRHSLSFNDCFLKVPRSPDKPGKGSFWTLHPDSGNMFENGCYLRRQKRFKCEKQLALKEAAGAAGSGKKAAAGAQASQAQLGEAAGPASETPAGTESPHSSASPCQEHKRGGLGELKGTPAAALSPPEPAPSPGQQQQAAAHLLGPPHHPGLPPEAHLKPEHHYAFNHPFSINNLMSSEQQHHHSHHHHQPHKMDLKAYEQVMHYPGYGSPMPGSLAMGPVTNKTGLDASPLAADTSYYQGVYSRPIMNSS
The experiment in a line: co-IP; FLAG-FOXA2 and MYC-SIRT1 (wild type or H363Y) co-expressed in HEK293T cells; lysis in SIRT buffer (1% Triton X-100, 5% glycerol, 50 mM Tris-HCl pH7.5, 100 mM NaCl, 5 mM EDTA); FLAG-FOXA2 precipitated with FLAG-M2 beads for 2 hours; SIRT1 detected by anti-MYC or anti-SIRT1; also after starvation from glucose and serum for 16 hours (interaction decreased).

Test [2] concerns the target T1, FLAG-FOXA2, Q9Y261. The experiment in a line: proximity ligation; FLAG-FOXA2 and MYC-SIRT1 ectopically expressed in U2OS cells; FLAG- and SIRT1-specific antibodies; data not shown.
Test [3] concerns the target T2, endogenous FOXA2 (human (endogenous in HepG2)), Q9Y261.
T2 chain: T1 chain
As to the kind of experiment: proximity ligation; endogenous FOXA2 and SIRT1 in fixed, permeabilized HepG2 cells; antibodies against SIRT1 and FOXA2, Duolink II PLA probes; also after 2 or 4 hours in glucose-free medium without FCS (interaction reduced).

B1: MYC-SIRT1, Q96EB6 1-747 (enzyme)
chain: MADEAALALQPGGSPSAAGADREAASSPAGEPLRKRPRRDGPGLERSPGEPGGAAPEREVPAAARGCPGAAAAALWREAEAEAAAAGGEQEAQATAAAGEGDNGPGLQGPSREPPLADNLYDEDDDDEGEEEEEAAAAAIGYRDNLLFGDEIITNGFHSCESDEEDRASHASSSDWTPRPRIGPYTFVQQHLMIGTDPRTILKDLLPETIPPPELDDMTLWQIVINILSEPPKRKKRKDINTIEDAVKLLQECKKIIVLTGAGVSVSCGIPDFRSRDGIYARLAVDFPDLPDPQAMFDIEYFRKDPRPFFKFAKEIYPGQFQPSLCHKFIALSDKEGKLLRNYTQNIDTLEQVAGIQRIIQCHGSFATASCLICKYKVDCEAVRGDIFNQVVPRCPRCPADEPLAIMKPEIVFFGENLPEQFHRAMKYDKDEVDLLIVIGSSLKVRPVALIPSSIPHEVPQILINREPLPHLHFDVELLGDCDVIINELCHRLGGEYAKLCCNPVKLSEITEKPPRTQKELAYLSELPPTPLHVSEDSSSPERTSPPDSSVIVTLLDQAAKSNDDLDVSESKGCMEEKPQEVQTSRNVESIAEQMENPDLKNVGSSTGEKNERTSVAGTVRKCWPNRVAKEQISRRLDGNQYLFLPPNRYIFHGAEVYSDSEDDVLSSSSCGSNSDSGTCQSPSLEEPMEDESEIEEFYNGLEDEPDVPERAGGAGFGTDGDDQEAINEAISVKQEVTDMNYPSNKS
Take B1: the binding result in the test with FLAG-FOXA2, Q9Y261 [1] is listed as “binds”; with FLAG-FOXA2, Q9Y261 [2], “binds”.

B2: endogenous SIRT1, Q96EB6 1-747 (enzyme)
chain: B1 chain
As to B2, the binding entry in test [3] is reported as “binds”.
